Data published in the supplement of paper PMC12819154, “High-throughput peptide-centric local stability assay extends protein–ligand identification to membrane proteins, tissues and bacteria” (Nature Structural & Molecular Biology, 2025).
This is one part of the list. Small differences around the control level are noise.

Amino acid sequences for entries named in this document (tags omitted). A change or cut given only in a name is not applied to a line headed by its entry.
UniProt Q8CI78: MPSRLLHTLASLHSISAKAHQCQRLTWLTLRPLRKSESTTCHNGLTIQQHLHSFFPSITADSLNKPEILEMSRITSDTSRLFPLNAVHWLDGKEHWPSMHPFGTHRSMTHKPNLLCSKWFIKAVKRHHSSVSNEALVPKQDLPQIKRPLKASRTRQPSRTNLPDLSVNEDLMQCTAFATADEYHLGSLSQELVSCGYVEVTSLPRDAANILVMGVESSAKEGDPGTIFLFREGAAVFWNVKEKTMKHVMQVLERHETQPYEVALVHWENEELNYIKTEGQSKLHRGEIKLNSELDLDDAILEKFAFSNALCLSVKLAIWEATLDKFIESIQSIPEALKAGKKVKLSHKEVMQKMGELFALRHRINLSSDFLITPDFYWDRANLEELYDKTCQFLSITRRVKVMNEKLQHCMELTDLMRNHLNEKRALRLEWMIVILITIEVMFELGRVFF
UniProt Q8K009: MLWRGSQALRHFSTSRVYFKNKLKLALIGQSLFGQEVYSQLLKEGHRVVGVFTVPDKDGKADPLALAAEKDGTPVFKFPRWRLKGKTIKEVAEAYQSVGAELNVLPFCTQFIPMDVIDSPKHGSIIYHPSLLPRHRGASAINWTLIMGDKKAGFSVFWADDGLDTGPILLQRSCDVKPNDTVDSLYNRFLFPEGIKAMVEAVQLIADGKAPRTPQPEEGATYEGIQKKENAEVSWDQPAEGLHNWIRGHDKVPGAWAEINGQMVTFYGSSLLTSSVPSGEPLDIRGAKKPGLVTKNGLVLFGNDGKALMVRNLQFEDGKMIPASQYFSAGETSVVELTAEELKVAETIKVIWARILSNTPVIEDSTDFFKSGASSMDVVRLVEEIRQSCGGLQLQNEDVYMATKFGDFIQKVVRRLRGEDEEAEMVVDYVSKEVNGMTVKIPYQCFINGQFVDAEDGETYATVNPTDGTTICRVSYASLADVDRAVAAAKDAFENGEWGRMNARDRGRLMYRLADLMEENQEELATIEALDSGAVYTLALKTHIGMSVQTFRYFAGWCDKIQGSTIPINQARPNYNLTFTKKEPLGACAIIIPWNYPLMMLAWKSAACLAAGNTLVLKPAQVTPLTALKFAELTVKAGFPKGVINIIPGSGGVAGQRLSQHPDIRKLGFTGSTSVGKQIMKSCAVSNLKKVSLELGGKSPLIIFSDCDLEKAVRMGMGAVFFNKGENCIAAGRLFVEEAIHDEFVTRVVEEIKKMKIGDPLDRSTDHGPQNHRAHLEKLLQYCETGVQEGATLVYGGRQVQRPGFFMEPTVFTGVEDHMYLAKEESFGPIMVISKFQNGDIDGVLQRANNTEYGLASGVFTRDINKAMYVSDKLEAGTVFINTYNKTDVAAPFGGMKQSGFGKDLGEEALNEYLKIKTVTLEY
UniProt Q8CII2: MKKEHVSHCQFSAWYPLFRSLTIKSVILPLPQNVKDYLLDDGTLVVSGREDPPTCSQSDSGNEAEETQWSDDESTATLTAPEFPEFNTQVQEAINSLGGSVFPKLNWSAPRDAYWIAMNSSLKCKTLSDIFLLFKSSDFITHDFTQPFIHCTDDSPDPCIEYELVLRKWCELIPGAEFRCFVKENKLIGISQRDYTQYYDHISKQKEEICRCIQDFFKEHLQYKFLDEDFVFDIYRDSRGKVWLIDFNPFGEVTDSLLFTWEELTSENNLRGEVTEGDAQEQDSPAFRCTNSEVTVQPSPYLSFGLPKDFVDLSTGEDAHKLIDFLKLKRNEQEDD
UniProt Q8JZS0: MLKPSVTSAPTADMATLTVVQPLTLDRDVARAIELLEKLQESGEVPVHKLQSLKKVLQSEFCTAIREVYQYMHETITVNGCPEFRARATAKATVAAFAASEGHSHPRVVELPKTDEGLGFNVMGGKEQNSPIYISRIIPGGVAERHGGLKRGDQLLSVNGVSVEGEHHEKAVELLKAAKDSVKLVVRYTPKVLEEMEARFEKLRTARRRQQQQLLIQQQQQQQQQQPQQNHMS
UniProt Q8K0G8: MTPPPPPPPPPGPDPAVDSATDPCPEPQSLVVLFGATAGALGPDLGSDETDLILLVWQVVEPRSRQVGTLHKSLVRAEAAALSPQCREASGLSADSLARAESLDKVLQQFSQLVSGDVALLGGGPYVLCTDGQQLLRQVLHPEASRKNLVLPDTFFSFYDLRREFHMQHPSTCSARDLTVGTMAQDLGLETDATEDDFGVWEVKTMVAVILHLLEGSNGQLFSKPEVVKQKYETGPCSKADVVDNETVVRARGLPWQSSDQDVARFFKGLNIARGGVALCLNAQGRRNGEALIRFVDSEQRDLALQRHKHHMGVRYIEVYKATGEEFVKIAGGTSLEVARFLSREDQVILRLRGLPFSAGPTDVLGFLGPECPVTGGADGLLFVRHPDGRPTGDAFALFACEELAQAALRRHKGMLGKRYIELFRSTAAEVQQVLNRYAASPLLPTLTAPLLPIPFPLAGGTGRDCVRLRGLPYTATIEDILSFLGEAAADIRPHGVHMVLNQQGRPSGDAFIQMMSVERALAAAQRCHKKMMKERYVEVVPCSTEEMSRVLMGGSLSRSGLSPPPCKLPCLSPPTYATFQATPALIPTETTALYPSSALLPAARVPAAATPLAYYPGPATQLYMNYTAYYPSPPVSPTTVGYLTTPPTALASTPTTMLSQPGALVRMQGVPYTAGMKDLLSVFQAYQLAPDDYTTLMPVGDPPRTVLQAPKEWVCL
UniProt Q8CFE6: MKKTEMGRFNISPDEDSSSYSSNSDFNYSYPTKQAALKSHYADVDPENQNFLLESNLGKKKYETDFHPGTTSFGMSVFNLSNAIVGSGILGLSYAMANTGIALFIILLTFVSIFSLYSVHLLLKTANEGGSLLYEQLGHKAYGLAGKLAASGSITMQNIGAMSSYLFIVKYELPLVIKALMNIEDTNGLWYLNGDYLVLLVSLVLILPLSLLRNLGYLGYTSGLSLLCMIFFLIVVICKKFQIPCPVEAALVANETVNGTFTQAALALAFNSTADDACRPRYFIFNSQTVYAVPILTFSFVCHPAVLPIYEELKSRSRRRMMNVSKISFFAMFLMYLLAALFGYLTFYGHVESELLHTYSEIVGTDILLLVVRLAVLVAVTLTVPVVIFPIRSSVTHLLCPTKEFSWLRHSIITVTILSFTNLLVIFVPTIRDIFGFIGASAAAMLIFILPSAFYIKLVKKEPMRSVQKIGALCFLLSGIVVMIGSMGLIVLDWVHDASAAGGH
UniProt Q8JZY2, whole entry: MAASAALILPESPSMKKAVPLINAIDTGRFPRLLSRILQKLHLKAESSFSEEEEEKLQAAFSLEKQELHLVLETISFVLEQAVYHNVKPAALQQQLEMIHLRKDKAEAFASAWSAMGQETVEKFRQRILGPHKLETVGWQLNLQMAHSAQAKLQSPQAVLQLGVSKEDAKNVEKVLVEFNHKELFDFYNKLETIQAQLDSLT
UniProt Q8CHY3: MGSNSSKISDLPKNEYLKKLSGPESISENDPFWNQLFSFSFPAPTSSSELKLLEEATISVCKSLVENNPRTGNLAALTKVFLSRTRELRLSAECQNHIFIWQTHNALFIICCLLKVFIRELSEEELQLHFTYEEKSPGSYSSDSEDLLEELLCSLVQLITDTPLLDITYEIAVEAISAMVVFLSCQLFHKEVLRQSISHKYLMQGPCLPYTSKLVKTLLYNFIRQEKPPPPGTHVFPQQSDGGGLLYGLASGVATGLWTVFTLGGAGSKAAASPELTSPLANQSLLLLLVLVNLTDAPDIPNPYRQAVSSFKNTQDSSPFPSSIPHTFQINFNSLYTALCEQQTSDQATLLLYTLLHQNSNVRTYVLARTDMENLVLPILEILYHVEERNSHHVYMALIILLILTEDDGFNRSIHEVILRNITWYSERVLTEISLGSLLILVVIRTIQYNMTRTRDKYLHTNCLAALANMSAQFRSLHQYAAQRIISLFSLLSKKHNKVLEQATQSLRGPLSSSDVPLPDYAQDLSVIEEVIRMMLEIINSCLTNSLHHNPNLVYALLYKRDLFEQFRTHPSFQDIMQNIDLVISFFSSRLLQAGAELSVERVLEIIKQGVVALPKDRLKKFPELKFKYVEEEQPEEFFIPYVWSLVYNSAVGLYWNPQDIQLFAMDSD
UniProt Q8CH09: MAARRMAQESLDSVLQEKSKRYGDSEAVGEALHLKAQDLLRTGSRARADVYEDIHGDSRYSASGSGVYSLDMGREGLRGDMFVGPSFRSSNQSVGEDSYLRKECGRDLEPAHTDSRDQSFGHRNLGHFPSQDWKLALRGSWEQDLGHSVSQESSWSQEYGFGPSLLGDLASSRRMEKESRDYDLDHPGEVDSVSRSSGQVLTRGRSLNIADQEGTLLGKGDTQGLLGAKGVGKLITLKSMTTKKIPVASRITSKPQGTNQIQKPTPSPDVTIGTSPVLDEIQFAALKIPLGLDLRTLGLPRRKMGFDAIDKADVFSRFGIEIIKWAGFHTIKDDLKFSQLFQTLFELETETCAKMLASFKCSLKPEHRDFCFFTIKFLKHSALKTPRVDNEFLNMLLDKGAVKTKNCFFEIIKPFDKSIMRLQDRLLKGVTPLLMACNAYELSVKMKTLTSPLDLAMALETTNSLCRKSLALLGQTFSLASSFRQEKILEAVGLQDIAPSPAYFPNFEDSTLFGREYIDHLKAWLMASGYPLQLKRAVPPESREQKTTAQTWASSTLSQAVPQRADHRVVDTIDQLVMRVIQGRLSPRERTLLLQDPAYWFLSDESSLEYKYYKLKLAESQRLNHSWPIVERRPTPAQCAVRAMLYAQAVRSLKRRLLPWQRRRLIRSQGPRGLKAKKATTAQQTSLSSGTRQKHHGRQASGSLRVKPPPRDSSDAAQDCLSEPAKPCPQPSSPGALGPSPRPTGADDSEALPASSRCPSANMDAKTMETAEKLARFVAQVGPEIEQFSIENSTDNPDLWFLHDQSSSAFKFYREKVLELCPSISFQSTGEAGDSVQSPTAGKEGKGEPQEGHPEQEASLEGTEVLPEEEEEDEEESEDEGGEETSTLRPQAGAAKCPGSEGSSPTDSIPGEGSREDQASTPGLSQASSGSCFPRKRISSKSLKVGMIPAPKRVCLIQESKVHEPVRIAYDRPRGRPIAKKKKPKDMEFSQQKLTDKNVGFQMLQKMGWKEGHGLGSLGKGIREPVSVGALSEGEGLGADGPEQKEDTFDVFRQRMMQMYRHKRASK
UniProt Q8CBW3: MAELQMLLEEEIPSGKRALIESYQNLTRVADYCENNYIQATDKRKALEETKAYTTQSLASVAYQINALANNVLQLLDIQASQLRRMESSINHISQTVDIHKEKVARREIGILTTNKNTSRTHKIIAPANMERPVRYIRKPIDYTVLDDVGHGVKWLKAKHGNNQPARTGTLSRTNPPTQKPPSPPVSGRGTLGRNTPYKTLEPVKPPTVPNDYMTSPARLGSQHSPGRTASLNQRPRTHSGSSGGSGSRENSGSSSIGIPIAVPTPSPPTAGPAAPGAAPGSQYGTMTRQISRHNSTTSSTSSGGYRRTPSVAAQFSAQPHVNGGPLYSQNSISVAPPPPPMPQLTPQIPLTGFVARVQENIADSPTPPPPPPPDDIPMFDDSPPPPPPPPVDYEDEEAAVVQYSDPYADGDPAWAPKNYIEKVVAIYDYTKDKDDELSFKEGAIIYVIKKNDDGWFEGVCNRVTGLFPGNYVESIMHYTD
UniProt Q8CBH5: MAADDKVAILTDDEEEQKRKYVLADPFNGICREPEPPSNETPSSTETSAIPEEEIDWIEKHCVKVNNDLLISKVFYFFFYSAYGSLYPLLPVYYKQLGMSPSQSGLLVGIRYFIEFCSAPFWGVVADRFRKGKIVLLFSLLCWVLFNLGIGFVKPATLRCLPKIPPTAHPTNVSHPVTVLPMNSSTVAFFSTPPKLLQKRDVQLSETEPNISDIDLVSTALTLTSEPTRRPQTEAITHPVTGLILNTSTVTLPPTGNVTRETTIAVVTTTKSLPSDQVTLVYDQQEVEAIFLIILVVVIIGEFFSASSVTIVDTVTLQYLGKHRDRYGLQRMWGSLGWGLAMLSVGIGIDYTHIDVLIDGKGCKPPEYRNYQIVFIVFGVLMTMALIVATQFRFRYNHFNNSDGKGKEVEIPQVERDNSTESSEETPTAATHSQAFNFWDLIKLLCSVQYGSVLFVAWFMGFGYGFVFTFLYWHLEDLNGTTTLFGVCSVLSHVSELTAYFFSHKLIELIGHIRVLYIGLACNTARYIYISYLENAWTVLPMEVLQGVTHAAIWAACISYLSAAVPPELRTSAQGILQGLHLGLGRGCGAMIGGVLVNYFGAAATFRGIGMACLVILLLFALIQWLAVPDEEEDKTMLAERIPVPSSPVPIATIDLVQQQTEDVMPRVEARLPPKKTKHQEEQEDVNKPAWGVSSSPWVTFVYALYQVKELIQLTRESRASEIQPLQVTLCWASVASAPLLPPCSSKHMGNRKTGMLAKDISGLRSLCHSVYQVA
UniProt Q8CCT4: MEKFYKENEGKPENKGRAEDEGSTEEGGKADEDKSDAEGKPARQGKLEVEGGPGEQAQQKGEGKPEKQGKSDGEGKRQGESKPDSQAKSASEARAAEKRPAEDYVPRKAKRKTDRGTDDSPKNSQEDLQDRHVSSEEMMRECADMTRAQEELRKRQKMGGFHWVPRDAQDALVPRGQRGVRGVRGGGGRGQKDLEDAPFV

These targets were tested with CN[C@@H]1C[C@H]2O[C@@](C)([C@@H]1OC)n1c3ccccc3c3c4c(c5c6ccccc6n2c5c31)C(=O)NC4 [staurosporine] (assay: log2 fold change of tryptic peptide abundance, ligand vs vehicle (limited proteolysis) (log2 ratio); higher = more trypsin-susceptible (destabilized)). Conditions: ligand concentration: 20 uM; sample: mouse liver crude lysate; replicate design: treated separately.

Row | Target | log2 fold change
1 | UniProt Q8CI78 (peptide sequence: HVMQVLER, peptide start residue: 247) | 0.345
2 | UniProt Q8CC88 (peptide sequence: YPSENLHDAITKACLSR, peptide start residue: 671) | -0.363
3 | UniProt Q8K009 (peptide sequence: HGSIIYHPSLLPR, peptide start residue: 100) | 0.102
4 | UniProt Q8CI71 (peptide sequence: LLAAIDEIDRPK, peptide start residue: 952) | 0.297
5 | UniProt Q8CJ12 (peptide sequence: RYLCCGKLR, peptide start residue: 884) | -0.0908
6 | UniProt Q8CE33 (peptide sequence: LVANNEVCVK, peptide start residue: 312) | 0.163
7 | UniProt Q8CII2 (peptide sequence: CFVKENK, peptide start residue: 180) | -0.396
8 | UniProt Q8JZS0 (peptide sequence: AIELLEKLQESGEVPVHK, peptide start residue: 32) | -0.239
9 | UniProt Q8K019 (peptide sequence: STSESFIQHIVSLVHHVK, peptide start residue: 598) | 0.137
10 | UniProt Q8CHD8 (peptide sequence: GWSEEPEEHAQLQR, peptide start residue: 34) | 0.28
11 | UniProt Q8CIG3 (peptide sequence: AVEIPDEDEDGSSEKK, peptide start residue: 34) | 0.128
12 | UniProt Q8CI04 (peptide sequence: TKLPLTLR, peptide start residue: 751) | 0.32
13 | UniProt Q8CH18 (peptide sequence: NDRGDQVPNR, peptide start residue: 302) | -0.87
14 | UniProt Q8K0G8 (peptide sequence: AEAAALSPQCR, peptide start residue: 77) | -0.329
15 | UniProt Q8CFE6 (peptide sequence: KEPMRSVQK, peptide start residue: 461) | 0.143
16 | UniProt Q8JZY2 (peptide sequence: LQSPQAVLQLGVSKEDAK, peptide start residue: 153) | -0.273

A second format for part of the listing above:
Row,Target,log2 fold change
2,"UniProt Q8CC88 (peptide sequence: YPSENLHDAITKACLSR, peptide start residue: 671)",-0.363
3,"UniProt Q8K009 (peptide sequence: HGSIIYHPSLLPR, peptide start residue: 100)",0.102

Remaining list, next part:

Row | Target | log2 fold change
17 | UniProt Q8JZP3 (peptide sequence: YHLLPTEQR, peptide start residue: 281) | 0.336
18 | UniProt Q8K012 (peptide sequence: MKDVYEKNPQMGDPGSLQPK, peptide start residue: 431) | 0.409
19 | UniProt Q8CIP4 (peptide sequence: TALAPGNDR, peptide start residue: 5) | -0.797
20 | UniProt Q8CDJ8 (peptide sequence: QWGPIFLK, peptide start residue: 287) | -0.629
21 | UniProt Q8CEC5 (peptide sequence: VVICGLLSVGK, peptide start residue: 7) | 0.457
22 | UniProt Q8CFE4 (peptide sequence: QPQQRPTDMSALNNLFGPQKPK, peptide start residue: 829) | -0.153
23 | UniProt Q8CBB9 (peptide sequence: FNVDEDMNEHIK, peptide start residue: 228) | -0.445
24 | UniProt Q8CEC6 (peptide sequence: QQLPDMEFGR, peptide start residue: 333) | 0.603
25 | UniProt Q8CHY3 (peptide sequence: SLHQYAAQR, peptide start residue: 476) | 0.447
26 | UniProt Q8CF89 (peptide sequence: LSAELLLGQLNTEHTEADVRR, peptide start residue: 84) | 0.419
27 | UniProt Q8CH09 (peptide sequence: GDMFVGPSFR, peptide start residue: 79) | 0.333
28 | UniProt Q8CBW3 (peptide sequence: KNDDGWFEGVCNR, peptide start residue: 451) | -0.394
29 | UniProt Q8CBH5 (peptide sequence: EVEIPQVER, peptide start residue: 408) | -0.208
30 | UniProt Q8CCT4 (peptide sequence: DAQDALVPR, peptide start residue: 167) | 0.423
31 | UniProt Q8CIM3 (peptide sequence: GSCHIGGNVATNAGGLR, peptide start residue: 210) | -0.501
